The target in the assay is T1, Rho family GTPase 3 (Rnd3), Flag-tagged, expressed from adenovirus Ad-Rnd3-Flag (UniProt P61588).
T1 sequence: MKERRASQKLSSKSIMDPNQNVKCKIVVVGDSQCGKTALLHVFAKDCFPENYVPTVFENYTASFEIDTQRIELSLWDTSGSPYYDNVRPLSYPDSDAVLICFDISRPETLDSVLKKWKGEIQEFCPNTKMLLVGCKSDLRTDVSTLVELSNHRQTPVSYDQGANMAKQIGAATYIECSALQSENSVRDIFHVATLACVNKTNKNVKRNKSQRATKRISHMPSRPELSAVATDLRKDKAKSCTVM
Kind of assay: co-IP; cardiac fibroblasts treated with Ad-Rnd3-Flag in conditioned medium (HG+PA); which protein was precipitated is not told in the text shown.

Results are given in words; binding and its absence hold for the method and conditions named. In cells and extracts the contact can be indirect. Binding can be weak; no strength is given. Tags and fused reporters may be left off the sequences shown.

Regarding “Notch intracellular domain (NICD) (domain or fragment)”, the binding result is reported as “binds”.

The values above are taken from article PMC9691359.
